For test [1], the target named is T1, Flag-Dvl2 (Dishevelled 2) (UniProt Q60838).
T1 sequence: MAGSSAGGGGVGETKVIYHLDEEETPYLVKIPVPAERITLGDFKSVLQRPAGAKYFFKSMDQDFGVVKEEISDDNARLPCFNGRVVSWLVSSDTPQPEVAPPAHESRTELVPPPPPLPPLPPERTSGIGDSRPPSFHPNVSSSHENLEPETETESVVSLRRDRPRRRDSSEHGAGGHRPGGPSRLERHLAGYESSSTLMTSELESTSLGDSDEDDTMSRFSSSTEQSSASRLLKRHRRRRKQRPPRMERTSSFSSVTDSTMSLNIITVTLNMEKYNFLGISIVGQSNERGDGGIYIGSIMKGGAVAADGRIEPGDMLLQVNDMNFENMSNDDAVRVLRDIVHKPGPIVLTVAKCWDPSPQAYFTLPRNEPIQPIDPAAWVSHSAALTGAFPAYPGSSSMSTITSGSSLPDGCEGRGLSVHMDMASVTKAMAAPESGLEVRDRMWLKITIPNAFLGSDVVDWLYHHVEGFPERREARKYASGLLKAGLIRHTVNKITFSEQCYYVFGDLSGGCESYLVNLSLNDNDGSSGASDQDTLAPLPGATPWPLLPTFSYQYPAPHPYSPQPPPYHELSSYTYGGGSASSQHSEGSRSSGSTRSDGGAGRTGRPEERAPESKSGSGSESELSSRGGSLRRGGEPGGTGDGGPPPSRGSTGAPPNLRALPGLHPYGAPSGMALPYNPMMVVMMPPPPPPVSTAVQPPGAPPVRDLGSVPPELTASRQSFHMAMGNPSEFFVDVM
Nature of the test: co-IP; lysates of COS7 cells co-expressing Shroom3L and Flag-Dvl2 in IP buffer (40 mM Tris pH 8.0, 5 mM EDTA, 10 mM EGTA, 100 mM NaCl, 0.5% Nonidet P-40); mouse anti-flag antibody overnight at 4°C, anti-mouse agarose beads; blot with anti-Shroom3 and anti-flag.

The target in test [2] is T2, GST-Shroom3 286-881 (mouse) (UniProt Q9QXN0).
T2 sequence: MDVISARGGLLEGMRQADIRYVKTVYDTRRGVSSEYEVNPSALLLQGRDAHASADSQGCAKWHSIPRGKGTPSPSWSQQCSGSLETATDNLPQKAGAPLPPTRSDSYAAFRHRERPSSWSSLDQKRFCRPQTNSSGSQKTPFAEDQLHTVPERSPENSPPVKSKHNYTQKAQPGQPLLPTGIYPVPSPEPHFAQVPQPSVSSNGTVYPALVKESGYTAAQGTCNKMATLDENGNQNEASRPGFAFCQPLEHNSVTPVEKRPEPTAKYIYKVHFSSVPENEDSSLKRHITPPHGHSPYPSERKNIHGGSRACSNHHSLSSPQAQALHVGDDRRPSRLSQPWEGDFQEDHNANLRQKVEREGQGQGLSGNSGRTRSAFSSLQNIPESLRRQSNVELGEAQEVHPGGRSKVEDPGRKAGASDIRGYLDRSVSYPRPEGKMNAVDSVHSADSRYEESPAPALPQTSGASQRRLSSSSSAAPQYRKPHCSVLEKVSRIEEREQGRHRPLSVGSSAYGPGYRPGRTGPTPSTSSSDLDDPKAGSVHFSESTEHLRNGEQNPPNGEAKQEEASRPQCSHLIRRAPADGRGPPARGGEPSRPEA
As to the kind of experiment: pull-down; GST-Shroom3 286-881 bound to beads incubated overnight with pre-cleared lysates of COS7 cells transiently expressing flag-Dvl2; washed in IP buffer; anti-Flag western blot of supernatant and pellet; only the target purified. A general note: Immunoblotting shows a protein as a band on a membrane.

These are yes or no findings as the source states them, for the method shown. Binding seen in cells or lysates may run through a third protein. Some entries that bind do so weakly or less than the wild type. Sequences can lack the tags named with a protein.

“Shroom3L (full length Shroom3) (from UniProt Q9QXN0 1-1986)”: the binding result in test [1] is listed as “binds”.

B1: Flag-Dvl2 (Dishevelled 2) (protein, UniProt Q60838 1-736)
chain: T1 sequence
For B1, the binding result in test [2] is “binds”.
